Measured values as given in patent US20180016637A1, “METHOD OF EVALUATING THE RESPONSE OF ATAXIA TELANGIECTASIA PATIENTS TO GLUCOCORTICOIDS TREATMENT” (EryDel S.p.A., priority 2015, published 2018).
At least one compound was matched to its structure with a doubt left.

Test system: miniATM
Assay: miniATM expression versus administered amount of dexamethasone and ICARS variation in A-T patients
Format: in vivo, Homo sapiens
Details: FIG. 5a

C[C@@H]1C[C@H]2[C@@H]3CCC4=CC(=O)C=C[C@]4(C)[C@@]3(F)[C@@H](O)C[C@]2(C)[C@@]1(O)C(=O)CO [dexamethasone]
correlation between miniATM expression and amount of drug administered: linear type
